Patent publication US9328106B2, “Cyclic ether pyrazol-4-yl-heterocyclyl-carboxamide compounds and methods of use” (Genentech, Inc., priority 2012, dated 2016)
At least one read-out could not be matched to a standard name with certainty.

System: BaF3 parental cells
Assay: In vitro cell proliferation, BaF3 parental line + IL3;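 further: BaF3 parental cells are murine IL-3 dependent pro-B cells grown with 2 ng/mL mIL-3, 384-well format, viability read by luminescence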
Type: cell-based, murine
Settings: mIL-3, incubated overnight, CELL TITER GLO, read-out: Prolif BaF3 IL3 (IC50)

`Cn1ncc(NC(=O)c2csc(-c3n[nH]c4c3CCCC4)n2)c1[C@@H]1CC[C@@H](N)[C@H](F)CO1` [Example 374, N-(5-((2S,5R,6S)-5-amino-6-fluorooxepan-2-yl)-1-methyl-1H-pyrazol-4-yl)-2-(4,5,6,7-tetrahydro-1H-indazol-3-yl)thiazole-4-carboxamide] showed an IC50 of 10.9 µM.
